Data published in publication PMC11963297.
No constants are given. Whether binding was seen depends on the method and setting. In cells and extracts the contact can be indirect. Binding can be weak; no strength is given. For part of these data: Sequences can lack the tags named with a protein.

Chains of the proteins cited; added tags and fusions are not shown. Lines headed by an entry give the natural chain unless they say otherwise; changes in a name come on top.
UniProt P23258: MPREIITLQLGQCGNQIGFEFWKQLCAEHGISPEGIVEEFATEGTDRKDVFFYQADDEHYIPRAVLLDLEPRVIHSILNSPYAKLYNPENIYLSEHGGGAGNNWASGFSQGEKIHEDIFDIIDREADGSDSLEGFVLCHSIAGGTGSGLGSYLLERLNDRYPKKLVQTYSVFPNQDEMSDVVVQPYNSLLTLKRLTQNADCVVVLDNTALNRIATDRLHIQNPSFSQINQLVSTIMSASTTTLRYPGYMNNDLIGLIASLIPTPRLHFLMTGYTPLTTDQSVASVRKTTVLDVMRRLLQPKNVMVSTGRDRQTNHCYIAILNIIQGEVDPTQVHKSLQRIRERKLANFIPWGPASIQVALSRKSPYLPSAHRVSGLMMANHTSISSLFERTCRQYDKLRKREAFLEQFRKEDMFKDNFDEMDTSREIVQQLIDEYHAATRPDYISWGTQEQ

B1: C-terminally mNeonGreen-tagged human GIT2, transcript variant 1 (GIT2-NG) (protein, UniProt Q14161-1 1-759)
chain: MSKRLRSSEVCADCSGPDPSWASVNRGTFLCDECCSVHRSLGRHISQVRHLKHTPWPPTLLQMVETLYNNGANSIWEHSLLDPASIMSGRRKANPQDKVHPNKAEFIRAKYQMLAFVHRLPCRDDDSVTAKDLSKQLHSSVRTGNLETCLRLLSLGAQANFFHPEKGNTPLHVASKAGQILQAELLAVYGADPGTQDSSGKTPVDYARQGGHHELAERLVEIQYELTDRLAFYLCGRKPDHKNGQHFIIPQMADSSLDLSELAKAAKKKLQSLSNHLFEELAMDVYDEVDRRETDAVWLATQNHSALVTETTVVPFLPVNPEYSSTRNQGRQKLARFNAHEFATLVIDILSDAKRRQQGSSLSGSKDNVELILKTINNQHSVESQDNDQPDYDSVASDEDTDLETTASKTNRQKSLDSDLSDGPVTVQEFMEVKNALVASEAKIQQLMKVNNNLSDELRIMQKKLQTLQSENSNLRKQATTNVYQVQTGSEYTDTSNHSSLKRRPSARGSRPMSMYETGSGQKPYLPMGEASRPEESRMRLQPFPAHIGRSALVTSSSSLPSFPSTLSWSRDESARRASRLEKQNSTPESDYDNTPNDMEPDGMGSSRKGRQRSMVWPGDGLVPDTAEPHVAPSPTLPSTEDVIRKTEQITKNIQELLRAAQENKHDSYIPCSERIHVAVTEMAALFPKKPKSDMVRTSLRLLTSSAYRLQSECKKTLPGDPGSPTDVQLVTQQVIQCAYDIAKAAKQLVTITTKENNN
B2: G protein-coupled receptor kinase-interacting protein 2 (GIT2), endogenous (protein, UniProt Q14161 1-759)
chain: B1 chain
B3: C-terminally mNeonGreen-tagged human GIT1, transcript variant 1 (GIT1-NG) (protein, UniProt Q9Y2X7-3 1-770)
chain: MSRKGPRAEVCADCSAPDPGWASISRGVLVCDECCSVHRSLGRHISIVKHLRHSAWPPTLLQMVHTLASNGANSIWEHSLLDPAQVQSGRRKANPQDKVHPIKSEFIRAKYQMLAFVHKLPCRDDDGVTAKDLSKQLHSSVRTGNLETCLRLLSLGAQANFFHPEKGTTPLHVAAKAGQTLQAELLVVYGADPGSPDVNGRTPIDYARQAGHHELAERLVECQYELTDRLAFYLCGRKPDHKNGHYIIPQMADRSRQKCMSQSLDLSELAKAAKKKLQALSNRLFEELAMDVYDEVDRRENDAVWLATQNHSTLVTERSAVPFLPVNPEYSATRNQGRQKLARFNAREFATLIIDILSEAKRRQQGKSLSSPTDNLELSLRSQSDLDDQHDYDSVASDEDTDQEPLRSTGATRSNRARSMDSSDLSDGAVTLQEYLELKKALATSEAKVQQLMKVNSSLSDELRRLQREIHKLQAENLQLRQPPGPVPTPPLPSERAEHTPMAPGGSTHRRDRQAFSMYEPGSALKPFGGPPGDELTTRLQPFHSTELEDDAIYSVHVPAGLYRIRKGVSASAVPFTPSSPLLSCSQEGSRHTSKLSRHGSGADSDYENTQSGDPLLGLEGKRFLELGKEEDFHPELESLDGDLDPGLPSTEDVILKTEQVTKNIQELLRAAQEFKHDSFVPCSEKIHLAVTEMASLFPKRPALEPVRSSLRLLNASAYRLQSECRKTVPPEPGAPVDFQLLTQQVIQCAYDIAKAAKQLVTITTREKKQ
B4: G protein-coupled receptor kinase-interacting protein 1 (GIT1), endogenous (protein, UniProt Q9Y2X7-3 1-770)
chain: B3 chain

Columns and labels:
[1] = target: γ-tubulin, endogenous (human (endogenous in U-251 MG)) (UniProt P23258); assay: co-IP; whole-cell extracts of cells expressing GIT1-NG, GIT2-NG or NG alone; precipitation with anti-NG Ab or, reciprocally, anti-γ-tubulin Ab on protein A beads; immunoblot
[2] = target: N-terminally GST-tagged full-length human γ-tubulin (GST-γ-tubulin) (human) (UniProt P23258); assay: pull-down; GST-fusion proteins or GST alone immobilised on Glutathione-Sepharose and incubated with whole-cell extracts of U-251 MG cells; immunoblot; only the target purified
[3] = target: γ-tubulin, endogenous (human (endogenous in U-251 MG)) (UniProt P23258); assay: co-IP; whole-cell extracts of U-251 MG cells (HEPES buffer with 1% NP-40, protease and phosphatase inhibitors) incubated with protein A beads preloaded with rabbit Ab to GIT1, GIT2 or PKCα or mAb TU-31 to γ-tubulin; immunoblot; endogenous proteins

Binder	binding [1]	binding [2]	binding [3]
B1	binds		
B2		binds	binds
B3	binds		
B4		binds	binds
